Laboratory results: article PMC8274477
Results are given in words; binding and its absence hold for the method and conditions named. Some results given as binding are weak or reduced against the parent protein; the word gives no strength.

Chains of the proteins cited; added tags and fusions are not shown.
UniProt Q02127: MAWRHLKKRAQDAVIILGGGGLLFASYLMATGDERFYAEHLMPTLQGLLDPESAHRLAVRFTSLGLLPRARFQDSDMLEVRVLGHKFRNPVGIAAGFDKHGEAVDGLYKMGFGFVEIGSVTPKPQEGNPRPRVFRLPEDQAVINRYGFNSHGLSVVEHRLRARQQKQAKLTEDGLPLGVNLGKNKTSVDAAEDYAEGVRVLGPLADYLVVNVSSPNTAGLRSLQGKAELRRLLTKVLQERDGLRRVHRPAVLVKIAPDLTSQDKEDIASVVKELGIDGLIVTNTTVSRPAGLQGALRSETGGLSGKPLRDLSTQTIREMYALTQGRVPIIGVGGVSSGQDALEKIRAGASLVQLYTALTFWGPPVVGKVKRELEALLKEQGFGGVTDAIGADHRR
UniProt P57723: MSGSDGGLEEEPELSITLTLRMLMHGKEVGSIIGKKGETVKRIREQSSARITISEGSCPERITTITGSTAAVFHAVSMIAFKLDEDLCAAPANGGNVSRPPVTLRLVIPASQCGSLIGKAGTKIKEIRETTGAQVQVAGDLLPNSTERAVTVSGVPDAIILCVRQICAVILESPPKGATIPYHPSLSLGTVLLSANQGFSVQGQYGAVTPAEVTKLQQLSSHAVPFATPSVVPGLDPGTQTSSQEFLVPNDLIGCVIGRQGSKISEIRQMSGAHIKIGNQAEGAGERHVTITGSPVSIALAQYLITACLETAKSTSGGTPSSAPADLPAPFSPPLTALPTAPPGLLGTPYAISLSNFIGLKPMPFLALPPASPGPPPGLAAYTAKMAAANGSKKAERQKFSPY

Assays:
Test in all cases: peptide or protein array; HuProt human proteome microarray; 5 ug/5 ml biotin-labelled LUBAC or OTULIN in solution, 1 h at room temperature; Cy5-streptavidin, scanned at 635 nm; BSA as negative control; hits: Z-score >= 3 and I_(Mean_Ratio) >= 1.4; both purified
DCX (human) = biological target: T1, DCX (human) (UniProt O43602)
T1 sequence: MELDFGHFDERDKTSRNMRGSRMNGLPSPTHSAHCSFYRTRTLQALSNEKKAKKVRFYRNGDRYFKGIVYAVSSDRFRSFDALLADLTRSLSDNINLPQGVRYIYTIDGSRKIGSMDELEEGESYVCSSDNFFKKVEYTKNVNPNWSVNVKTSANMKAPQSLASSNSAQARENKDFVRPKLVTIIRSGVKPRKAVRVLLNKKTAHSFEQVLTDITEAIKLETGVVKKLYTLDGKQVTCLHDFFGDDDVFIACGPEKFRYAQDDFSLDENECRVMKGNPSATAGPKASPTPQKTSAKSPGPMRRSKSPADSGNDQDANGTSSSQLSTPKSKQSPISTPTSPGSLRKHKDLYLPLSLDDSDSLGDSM

[1] = biological target: T2, LAG3 (spot on the microarray) (human) (UniProt P18627)
T2 sequence: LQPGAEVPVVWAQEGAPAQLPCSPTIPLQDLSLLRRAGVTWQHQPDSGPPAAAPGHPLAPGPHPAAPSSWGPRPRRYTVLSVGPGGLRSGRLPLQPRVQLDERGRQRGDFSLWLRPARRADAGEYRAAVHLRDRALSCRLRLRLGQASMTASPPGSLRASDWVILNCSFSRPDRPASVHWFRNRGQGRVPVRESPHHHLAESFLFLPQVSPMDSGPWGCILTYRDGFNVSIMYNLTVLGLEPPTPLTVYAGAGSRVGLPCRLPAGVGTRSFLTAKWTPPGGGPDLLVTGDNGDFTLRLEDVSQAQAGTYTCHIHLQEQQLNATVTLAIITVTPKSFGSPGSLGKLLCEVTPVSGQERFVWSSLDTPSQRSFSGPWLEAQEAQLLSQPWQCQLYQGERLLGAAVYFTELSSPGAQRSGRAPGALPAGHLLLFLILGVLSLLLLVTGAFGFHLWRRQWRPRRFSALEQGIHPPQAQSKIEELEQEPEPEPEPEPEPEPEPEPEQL

SSBP2 (human) = biological target: T3, SSBP2 (human) (UniProt P81877)
T3 sequence: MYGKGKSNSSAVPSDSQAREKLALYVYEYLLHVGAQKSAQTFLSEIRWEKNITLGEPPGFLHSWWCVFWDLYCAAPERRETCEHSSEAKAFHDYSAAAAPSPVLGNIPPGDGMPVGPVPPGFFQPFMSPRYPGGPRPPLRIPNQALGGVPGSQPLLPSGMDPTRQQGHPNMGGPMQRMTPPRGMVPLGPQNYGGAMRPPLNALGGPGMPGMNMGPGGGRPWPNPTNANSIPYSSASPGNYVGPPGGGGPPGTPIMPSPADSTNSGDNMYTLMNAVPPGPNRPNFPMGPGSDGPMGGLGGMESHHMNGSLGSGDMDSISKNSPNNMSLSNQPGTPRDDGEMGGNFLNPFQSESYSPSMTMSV

DHODH (human) = DHODH (human) (UniProt Q02127)
SSBP4 (human) = biological target: T4, SSBP4 (human) (UniProt Q9BWG4)
T4 sequence: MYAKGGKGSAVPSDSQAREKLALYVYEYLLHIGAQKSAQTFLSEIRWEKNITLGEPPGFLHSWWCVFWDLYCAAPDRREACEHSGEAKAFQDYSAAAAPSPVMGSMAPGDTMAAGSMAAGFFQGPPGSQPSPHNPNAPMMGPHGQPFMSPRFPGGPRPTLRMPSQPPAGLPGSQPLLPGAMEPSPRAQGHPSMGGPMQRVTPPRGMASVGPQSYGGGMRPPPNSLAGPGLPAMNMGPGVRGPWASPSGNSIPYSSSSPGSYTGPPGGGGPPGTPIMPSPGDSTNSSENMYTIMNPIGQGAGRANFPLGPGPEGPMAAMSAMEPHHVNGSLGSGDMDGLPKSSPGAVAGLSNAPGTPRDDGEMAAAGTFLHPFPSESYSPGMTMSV

PCBP4 (human) = PCBP4 (human) (UniProt P57723)

Measured: binding

linear ubiquitin chain assembly complex (LUBAC), purified as HIS-tagged HOIP with the subunit HOIL-1, biotin-labelled (from UniProt Q96EP0 1-1072; Q9BYM8 1-510)
binds: all assays above
